Source: the supplement of paper PMC10849652
Some of the results follow.

The chains behind the UniProt entries cited, without tags or fusion partners. Where a name states a change or a piece, a line headed by the entry shows the natural chain unless it says otherwise.
UniProt O75438, whole entry, looked up: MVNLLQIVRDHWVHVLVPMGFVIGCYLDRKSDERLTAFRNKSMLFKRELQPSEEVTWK
UniProt O00483, whole entry, looked up: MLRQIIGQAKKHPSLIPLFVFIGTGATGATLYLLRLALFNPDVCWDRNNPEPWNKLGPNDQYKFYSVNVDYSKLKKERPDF
UniProt P56556, whole entry, looked up: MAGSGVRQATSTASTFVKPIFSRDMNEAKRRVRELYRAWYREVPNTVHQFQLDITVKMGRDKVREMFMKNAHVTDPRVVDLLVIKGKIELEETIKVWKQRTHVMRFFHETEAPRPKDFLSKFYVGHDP
UniProt Q99747: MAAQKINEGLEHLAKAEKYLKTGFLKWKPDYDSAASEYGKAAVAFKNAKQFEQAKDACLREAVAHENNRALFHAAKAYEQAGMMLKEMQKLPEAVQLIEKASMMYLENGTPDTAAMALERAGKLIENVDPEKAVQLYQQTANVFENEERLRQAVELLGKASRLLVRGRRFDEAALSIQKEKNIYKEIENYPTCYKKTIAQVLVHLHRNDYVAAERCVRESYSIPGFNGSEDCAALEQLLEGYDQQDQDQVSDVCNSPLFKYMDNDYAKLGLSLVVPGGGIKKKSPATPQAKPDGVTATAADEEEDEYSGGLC
UniProt B2RBV5: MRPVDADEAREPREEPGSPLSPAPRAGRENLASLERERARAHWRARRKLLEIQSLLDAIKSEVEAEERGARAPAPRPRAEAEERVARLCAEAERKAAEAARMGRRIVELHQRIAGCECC
UniProt O75251, whole entry, looked up: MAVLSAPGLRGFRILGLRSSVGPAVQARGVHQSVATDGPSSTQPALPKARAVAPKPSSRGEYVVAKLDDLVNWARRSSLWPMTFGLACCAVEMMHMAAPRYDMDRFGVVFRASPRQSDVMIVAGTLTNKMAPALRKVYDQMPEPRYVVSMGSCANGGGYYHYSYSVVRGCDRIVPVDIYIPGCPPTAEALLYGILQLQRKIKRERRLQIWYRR
UniProt Q9NR45: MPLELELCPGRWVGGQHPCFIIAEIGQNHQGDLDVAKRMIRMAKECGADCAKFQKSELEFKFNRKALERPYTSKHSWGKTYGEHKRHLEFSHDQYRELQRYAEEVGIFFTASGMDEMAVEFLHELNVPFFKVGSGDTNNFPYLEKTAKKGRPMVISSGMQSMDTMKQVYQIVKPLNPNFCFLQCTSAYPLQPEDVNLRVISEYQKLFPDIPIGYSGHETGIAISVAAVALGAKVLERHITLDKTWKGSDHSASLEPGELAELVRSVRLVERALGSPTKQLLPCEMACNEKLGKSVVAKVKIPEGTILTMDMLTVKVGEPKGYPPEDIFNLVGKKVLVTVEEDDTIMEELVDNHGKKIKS
UniProt Q9UK23: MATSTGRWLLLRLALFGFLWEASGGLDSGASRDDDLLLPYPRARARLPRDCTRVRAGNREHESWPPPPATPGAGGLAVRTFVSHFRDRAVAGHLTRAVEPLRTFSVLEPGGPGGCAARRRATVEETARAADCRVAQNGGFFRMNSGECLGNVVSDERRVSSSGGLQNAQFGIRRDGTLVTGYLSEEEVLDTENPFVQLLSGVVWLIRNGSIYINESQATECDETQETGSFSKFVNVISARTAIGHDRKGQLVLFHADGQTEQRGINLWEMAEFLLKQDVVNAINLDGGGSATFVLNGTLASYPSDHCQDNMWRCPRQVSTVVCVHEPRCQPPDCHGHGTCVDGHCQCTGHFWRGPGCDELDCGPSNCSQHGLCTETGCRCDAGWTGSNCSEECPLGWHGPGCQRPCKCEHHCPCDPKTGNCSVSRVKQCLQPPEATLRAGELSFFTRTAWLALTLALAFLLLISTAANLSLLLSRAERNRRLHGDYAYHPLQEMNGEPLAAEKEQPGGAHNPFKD

Legend:
Assay in all cases: log2 fold change, soluble protein after heating vs DMSO (PISA); higher = thermal stabilisation; K562 cells, 10 uM, 30 min; active = over 0.2 and 3.5 SD of the protein, either way, in both replicates (recomputed)
[1] = compound: CC[C@@H]1C(=O)N(C)c2cnc(Nc3ccc(C(=O)NC4CCN(C)CC4)cc3OC)nc2N1C1CCCC1
Method in brief: (§1)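 K562 cells at 2×10^6 cells/mL were given 10 μM compound for 30 min. Aliquots then went through 3 min of heating across 48°C-58°C, were pooled, and were extracted in PBS with 0.5% NP-40 at 4°C, and the supernatant after 21,000xg for 90 min was quantified by TMTpro 16plex LC-MS/MS with channel sums equalised. Thermal stability relative to control samples, from duplicates, is given as log2 fold change.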

[2] = compound: CC[C@@H]1C(=O)N(C)c2cnc(Nc3ccc(C(=O)N[C@H]4CC[C@H](N5CCN(CC6CC6)CC5)CC4)cc3OC)nc2N1C(C)C [volasertib]
Method in brief: as §1

[3] = compound: CC[C@H](C)N1C=C(C2=C(C=C(C=C21)C3=CN=C(C=C3)N4CCNCC4)C(=O)NCC5=C(C=C(NC5=O)C)C)C
Method in brief: as §1

[4] = compound: CC[C@H](C)[C@@H](C(=O)N[C@@H]([C@@H](C)O)C(=O)N[C@@H](CC(C)C)C(=O)[C@]1(CO1)C)NC(=O)[C@H]([C@@H](C)CC)N(C)C(=O)C [epoxomicin]
Method in brief: as §1

[5] = compound: CCn1cc(-c2ccnc3[nH]c(-c4cccc(CN(C)C)c4)cc23)c(-c2ccc(NC(=O)N(C)C)cc2)n1
Method in brief: as §1

[6] = compound: CN(C)CC(=O)Nc1ccc2[nH]c(=O)c3ccccc3c2c1
Method in brief: as §1

[7] = compound: CN1CCC(CNc2ccc3ncc(-c4cccc(OC(F)(F)F)c4)n3n2)CC1
Method in brief: as §1

[8] = compound: CN1CCN(c2nc(C3=C(c4c[nH]c5ccccc45)C(=O)NC3=O)c3ccccc3n2)CC1 [sotrastaurin]
Method in brief: as §1

[9] = compound: CN1CCc2c(c3ccccc3n2Cc2ccc(C(=O)NO)cc2)C1 [Tubastatin A]
Method in brief: as §1

[10] = compound: CNC(=O)C1=CC=CC=C1NC2=NC(=NC=C2Cl)NC3=C(C=C(C=C3)N4CCOCC4)OC
Method in brief: as §1

[11] = compound: CNC(=O)c1ccc(Nc2ncc(C(F)(F)F)c(NCc3nccnc3N(C)S(C)(=O)=O)n2)cc1 [defactinib]
Method in brief: as §1

[12] = compound: CNCc1ccc(-c2[nH]c3cc(F)cc4c3c2CCNC4=O)cc1 [rucaparib]
Method in brief: as §1

[13] = compound: COC(=O)N[C@@H](C)CNc1nccc(-c2cn(C(C)C)nc2-c2cc(Cl)cc(NS(C)(=O)=O)c2F)n1 [encorafenib]
Method in brief: as §1

[14] = compound: COC(=O)[C@H](CCSC)NC(=O)C1=C(C=C(C=C1)NC[C@H](CS)N)C2=CC=CC=C2
Method in brief: as §1

[15] = compound: CN1C2=C(C3=C1C(=O)N(N=C3)CC4=CC(=CC=C4)N)SC(=C2)S(=O)C
Method in brief: as §1

[16] = compound: CN1CCN(CCOc2cc(OC3CCOCC3)c3c(Nc4c(Cl)ccc5c4OCO5)ncnc3c2)CC1 [saracatinib]
Method in brief: as §1

[17] = compound: CNc1nc(-c2ccc3c(N)n[nH]c3c2)cc(N2C[C@@H](C(=O)NC3CCCCC3)CC[C@H]2C)n1
Method in brief: as §1

[18] = compound: CCn1c(C(=O)N(C2CC2)C2CC2)cc2c3c(ncn3C)c(Nc3cc(C)n(C)n3)nc21
Method in brief: as §1

[19] = compound: CN(CCOC1=CC=C(C=C1)C[C@H]2C(=O)NC(=O)S2)C3=CC=CC=N3 (racemic) [rosiglitazone]
Method in brief: as §1

[20] = compound: CN1CC[C@H](c2c(O)cc(O)c3c(=O)cc(-c4ccccc4Cl)oc23)[C@H](O)C1 [alvocidib]
Method in brief: as §1

| Target | log2 fold change [1] | log2 fold change [2] | log2 fold change [3] | log2 fold change [4] | log2 fold change [5] | log2 fold change [6] | log2 fold change [7] | log2 fold change [8] | log2 fold change [9] | log2 fold change [10] | log2 fold change [11] | log2 fold change [12] | log2 fold change [13] | log2 fold change [14] | log2 fold change [15] | log2 fold change [16] | log2 fold change [17] | log2 fold change [18] | log2 fold change [19] | log2 fold change [20] |
| --- | --- | --- | --- | --- | --- | --- | --- | --- | --- | --- | --- | --- | --- | --- | --- | --- | --- | --- | --- | --- |
| NDUFB1 (UniProt O75438) | inactive: -0.004 | inactive: -0.08 | inactive: -0.099 | active: 0.396 | inactive: -0.102 | inactive: 0.006 | active: 0.282 | inactive: 0.015 | inactive: -0.09 | inactive: -0.01 | inactive: -0.021 | inactive: -0.035 | inactive: 0.001 | inactive: 0.034 |  |  |  |  |  |  |
| NDUFA4 (UniProt O00483) | inactive: 0.033 | inactive: 0.042 | inactive: -0.019 | active: 0.369 | inactive: 0.019 | inactive: -0.039 | inactive: 0.101 | inactive: 0.021 | inactive: -0.029 | inactive: 0.009 | inactive: -0.03 | inactive: -0.106 | inactive: -0.04 | inactive: 0.001 | inactive: 0.018 | inactive: 0.021 | inactive: -0.129 |  |  |  |
| NDUFAB1 (UniProt O14561) | inactive: -0.085 |  | inactive: 0 | inactive: 0.138 | inactive: 0.183 | inactive: 0.205 | inactive: 0.201 | inactive: 0.027 | inactive: 0.029 | inactive: 0.102 | inactive: -0.071 | inactive: -0.402 | inactive: 0.152 | inactive: 0.125 |  |  |  | inactive: -0.057 | inactive: -0.03 | inactive: -0.062 |
| NDUFB10 (UniProt O96000) | inactive: -0.008 | inactive: 0.056 | inactive: -0.007 | inactive: 0.001 | inactive: 0.03 | inactive: -0.005 | active: -0.237 | inactive: 0.008 | inactive: -0.022 | inactive: -0.012 | inactive: -0.016 | inactive: 0.012 | inactive: -0.005 | inactive: -0.029 | inactive: -0.043 | inactive: -0.027 | inactive: -0.004 |  |  |  |
| NDUFA6 (UniProt P56556) | inactive: -0.069 | inactive: -0.252 | inactive: 0.098 | inactive: 0.115 | inactive: -0.089 | inactive: 0.081 | inactive: -0.072 | inactive: 0.003 | inactive: 0.021 | inactive: -0.039 | inactive: -0.068 | inactive: 0.006 | inactive: 0.034 | inactive: -0.039 | inactive: -0.022 | inactive: -0.037 | inactive: 0.044 |  |  |  |
| NAPG (UniProt Q99747) | inactive: -0.118 | active: -0.462 | inactive: 0.072 | inactive: 0.069 | inactive: -0.076 | inactive: 0.048 | inactive: -0.028 | inactive: -0.075 | inactive: 0.048 | inactive: 0.031 | inactive: -0.159 | inactive: 0.044 | inactive: 0.052 | inactive: -0.028 | inactive: 0 | inactive: -0.028 | inactive: 0.053 |  |  |  |
| NA (UniProt B2RBV5) | inactive: 0.135 | inactive: 0.163 | inactive: 0.049 | active: 0.593 | inactive: 0.128 |  | inactive: -0.08 | inactive: -0.057 |  |  |  | inactive: -0.16 | inactive: -0.09 |  |  |  |  |  |  |  |
| NDUFS7 (UniProt O75251) | inactive: -0.043 | inactive: -0.042 | inactive: 0.003 | inactive: -0.007 | inactive: -0.005 | inactive: 0.012 | active: -0.327 | inactive: 0.014 | inactive: -0.001 | inactive: -0.038 | inactive: -0.016 | inactive: -0.004 | inactive: 0.024 | inactive: 0.002 | inactive: -0.029 | inactive: -0.047 | inactive: -0.048 |  |  |  |
| NANS (UniProt Q9NR45) | inactive: 0.015 | inactive: -0.013 | inactive: 0.032 | inactive: 0.016 | inactive: -0.041 | inactive: 0.009 | inactive: 0.034 | inactive: -0.058 | inactive: -0.026 | inactive: 0.034 | inactive: -0.033 | inactive: -0.084 | inactive: 0.004 | inactive: -0.015 | active: -0.434 | inactive: 0.022 | inactive: 0.051 |  |  |  |
| NAGPA (UniProt Q9UK23) | inactive: 0.213 | active: 0.555 | inactive: -0.065 | inactive: 0.071 | inactive: 0.084 |  | inactive: -0.083 | inactive: -0.017 | inactive: 0.068 | inactive: 0.022 |  | inactive: -0.132 | inactive: 0.014 |  | inactive: -0.084 | inactive: -0.009 | inactive: -0.049 |  |  |  |

2 entries drawn at random from those above:

| Target | log2 fold change [1] | log2 fold change [2] | log2 fold change [3] | log2 fold change [4] | log2 fold change [5] | log2 fold change [6] | log2 fold change [7] | log2 fold change [8] | log2 fold change [9] | log2 fold change [10] | log2 fold change [11] | log2 fold change [12] | log2 fold change [13] | log2 fold change [14] | log2 fold change [15] | log2 fold change [16] | log2 fold change [17] | log2 fold change [18] | log2 fold change [19] | log2 fold change [20] |
| --- | --- | --- | --- | --- | --- | --- | --- | --- | --- | --- | --- | --- | --- | --- | --- | --- | --- | --- | --- | --- |
| NDUFA6 (UniProt P56556) | inactive: -0.069 | inactive: -0.252 | inactive: 0.098 | inactive: 0.115 | inactive: -0.089 | inactive: 0.081 | inactive: -0.072 | inactive: 0.003 | inactive: 0.021 | inactive: -0.039 | inactive: -0.068 | inactive: 0.006 | inactive: 0.034 | inactive: -0.039 | inactive: -0.022 | inactive: -0.037 | inactive: 0.044 |  |  |  |
| NANS (UniProt Q9NR45) | inactive: 0.015 | inactive: -0.013 | inactive: 0.032 | inactive: 0.016 | inactive: -0.041 | inactive: 0.009 | inactive: 0.034 | inactive: -0.058 | inactive: -0.026 | inactive: 0.034 | inactive: -0.033 | inactive: -0.084 | inactive: 0.004 | inactive: -0.015 | active: -0.434 | inactive: 0.022 | inactive: 0.051 |  |  |  |
